A short description of the assay: qHTS Assay to Find Inhibitors of Chronic Active B-Cell Receptor Signaling. Conditions: ABC-DLBCL IkBa-CBG/CBR reporter, luminescence ratio (green luciferase fused to IkBa over red control in TMD8 lymphoma cells), 4 h. The method in brief:
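Doxycycline induced both beetle luciferases in TMD8 lymphoma cells; IKK-driven degradation limits the IkappaBalpha-fused green signal, while red luminescence normalises for cell number and nonspecific effects. Compounds tested up to 46 uM, 4 hrs.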
(Quantitative high-throughput screening tests each substance at several concentrations.)

[1] abbreviates: measured here: CBR red luminescence, cell number.
Setting [2] is: measured here: IkBa-CBG green luminescence.

Some of the results follow. These are further read-outs of the screen, such as a control signal, another cell line or another target. No call is given for them. Most of these compounds were active or inconclusive in the main read-out, so they are no random draw. Words in brackets tell the shape of the fitted curve; partial curves, single points and poor fits give uncertain potencies.

Consider `Cc1cc(C)n2c(C)nnc2c1`, for which the AC50 under setting [1] is 12.6 µM [falling, partial curve, poor fit]. `N/C(=N\OC(=O)COc1ccc2ccccc2c1)c1ccncc1`: the AC50 under setting [1] was 0.562 µM [rising, full curve, poor fit]. Consider `Cc1nnsc1C(=O)NNC(=O)c1ccc(C(F)(F)F)cc1`, for which the AC50 under setting [1] was 35.5 µM [falling, single point]. Consider `CS(=O)(=O)C1=C(O)C(=O)N(c2ccccc2)C1c1ccccc1` (centres undefined), for which the AC50 by setting is: under setting [1], 1.16 µM [rising, full curve, poor fit]; under setting [2], 5.8 µM [falling, partial curve, poor fit]. On to `Nc1nc(SCc2ccccc2)c2[nH]cnc2n1`, for which, under setting [2], the AC50 is 14.1 µM [falling, partial curve, poor fit].

With `COc1ccc(C(=O)NCCn2cc(SCC(=O)Nc3ccc(C)cc3)c3ccccc32)cc1`, the AC50 was 20 µM [falling, single point] under setting [1] and 12.6 µM [rising, partial curve, poor fit] under setting [2]. For the compound `O=C(Nc1nnc(C2CCCO2)s1)c1cccs1` (centres undefined), the AC50 under setting [1] was 29.1 µM [falling, single point]. Still for that read-out and setting: under `CC1CCC(NC(=O)CCS(=O)(=O)c2ccc3c(c2)CC(C)N3C(=O)C2CC2)CC1` (centres undefined) stands 2.82 µM [falling, single point]; under `CN(C(=O)Nc1cnccc1C(F)(F)F)C1CCCCC1`, 20 µM [falling, partial curve, poor fit]; under `CCOC(=O)CN(C(=O)CNC(=O)c1cccs1)C(C(=O)NC1CCCC1)c1ccncc1` (centres undefined), 12.6 µM [rising, single point]. Turning to `O=C(O)c1cccnc1SCCc1ccccc1`, the AC50 under setting [1] was 3.66 µM [rising, partial curve, poor fit].

On to `COc1ccc(-c2nnc(SCC(=O)Nc3ccccc3OC)o2)cc1`, for which the AC50 under setting [1] was 8.2 µM [falling, partial curve]. On the same count and under the same terms, the value for `c1ccc(-c2cn3c(n2)-c2ccccc2C3)cc1` was 29.1 µM [falling, single point].

In the case of `COCCOC(=O)c1c(NC(=O)CSc2cccc[n+]2[O-])sc(C(N)=O)c1C`, the AC50 under setting [2] was 35.5 µM [falling, single point]. Take `CC(C)(Oc1ccc(CCNC(=O)c2ccc(Cl)cc2)cc1)C(=O)O`: the AC50 under setting [1] was 20.6 µM [rising, single point]. In the case of `OCCN1CCN(CCCN2c3ccccc3Sc3ccc(C(F)(F)F)cc32)CC1`, the AC50 is 23.1 µM [falling, partial curve] under setting [1] and 7.94 µM [rising, partial curve] under setting [2]. On to `Cc1cc(NCc2ccccn2)n2ncc(-c3ccccc3)c2n1`, for which the AC50 under setting [1] was 35.5 µM [falling, single point]. Turning to `Cc1c(Cc2ccccc2)sc(N)c1C(N)=O`, the AC50 under setting [1] was 32.6 µM [rising, single point].

Regarding `CCC(=O)c1ccc(O)c(CC=C(C)C)c1`, the AC50 under setting [1] was 15.8 µM [rising, single point].

For the compound `c1ccc(-c2nc(C3CCCCC3)c3ccccc3n2)cc1`, the AC50 under setting [1] was 20.6 µM [falling, single point]. In the case of `O=C(O)C1CCCN1C(=O)c1cncc(Br)c1` (centres undefined), the AC50 under setting [1] is 2.82 µM [rising, single point].

As to `Cc1ccc(NC(=O)C(Cc2ccccc2)n2cccc2)cc1` (centres undefined), under setting [1], the AC50 was 12.6 µM [rising, partial curve, poor fit].

On to `O=C(NC1CCCCC1)N1CCc2[nH]c3ccccc3c2C1`, for which the AC50 under setting [1] is 11.2 µM [falling, partial curve]. For the compound `Cc1ccc(-c2noc(CN(C(=O)c3ccc4c(c3)OCO4)C(C)C)n2)cc1`, the AC50 under setting [1] was 12.6 µM [falling, single point].

Take `COc1ccc(CCNC(=O)C/C(C)=N/NC(=O)c2cnccn2)cc1`: the AC50 under setting [1] is 20 µM [falling, partial curve, poor fit]. Take `CC(=O)COc1ccc2oc(=O)cc(-c3cc4ccccc4o3)c2c1`: under setting [1], the AC50 is 35.5 µM [falling, single point]. With `CCNC(=O)COC(=O)c1csc2c1CCCC2`, the AC50 under setting [1] is 9.2 µM [rising, partial curve, poor fit]. For `COc1cc(-c2nc(-c3ccccc3)c(-c3cc([N+](=O)[O-])ccc3C)[nH]2)cc(OC)c1OC`, the AC50 under setting [1] is 9.2 µM [falling, partial curve, poor fit]. Regarding `O=C(Nc1ccccc1SCC1CSc2nc3ccccc3c(=O)n21)c1cccc(Cl)c1` (centres undefined), the AC50 under setting [1] is 10.3 µM [falling, partial curve, poor fit]. For `O=C(c1ccc(Br)s1)N1CCN(S(=O)(=O)c2ccccc2)CC1`, the AC50 under setting [1] was 6.31 µM [rising, single point]. Same read-out and setting: under `Cc1ccc(-c2nc(-c3ccncc3)no2)c(C)c1` stands 3.16 µM [rising, full curve, poor fit]; under `Cc1ccc2nc(C)c3c(c2c1)SCC3`, 6.31 µM [rising, partial curve]; under `CCOC(=O)c1nnc(-c2ccccc2)nc1Oc1ccc(Cl)cc1`, 23.1 µM [falling, single point]. Turning to `COc1ccccc1-c1cc2nc(C)c(CCC(=O)NCc3ccc(F)cc3)c(C)n2n1`, the AC50 under setting [1] was 5.62 µM [falling, partial curve]. Turning to `Cc1ccc(NC(=O)Nc2nc3ccccc3s2)cc1NC(=O)Nc1nc2ccccc2s1`, the AC50 under setting [1] is 10 µM [falling, partial curve]. Consider `COc1ccc(NC(=O)COC(=O)CCCC2=NS(=O)(=O)c3ccccc3N2)cc1Cl`, for which the concentration at half-maximal activity (AC50) under setting [1] was 14.1 µM [rising, partial curve, poor fit]. Consider `O=C(NC(=S)Nc1ccccc1Br)c1cccnc1`, for which the concentration at half-maximal activity (AC50) under setting [1] is 2.82 µM [rising, partial curve, poor fit]. On to `Cc1c(N2C(=O)C3C4C=CC(C4)C3C2=O)c(=O)n(-c2ccccc2)n1C` (centres undefined), for which the AC50 under setting [1] was 15.8 µM [rising, single point].

As for `CC(=O)c1cccc(Nc2ncnc3c2cnn3C)c1`, the AC50 under setting [1] is 10 µM [falling, partial curve, poor fit]. Same read-out and setting: under `CCOC(=O)Nc1ccc2c(c1)N(C(=O)CCN1CCN3CCCC3C1)c1ccccc1CC2` (centres undefined) stands 0.259 µM [falling, full curve, poor fit]; under `Cc1ccc(C)n1-n1cnc2sc(-c3ccccc3)cc2c1=O`, 20.6 µM [falling, single point].

Usually AC50 stands for the concentration at which the activity in the assay is half-maximal.

The record behind these values is PubChem BioAssay AID493014 (National Center for Advancing Translational Sciences (NCATS), 2011).
